The values that follow come from publication PMC12858401.

By UniProt entry, the sequences of proteins in these tests, tags left out. Residues count along the entry.
UniProt Q15075: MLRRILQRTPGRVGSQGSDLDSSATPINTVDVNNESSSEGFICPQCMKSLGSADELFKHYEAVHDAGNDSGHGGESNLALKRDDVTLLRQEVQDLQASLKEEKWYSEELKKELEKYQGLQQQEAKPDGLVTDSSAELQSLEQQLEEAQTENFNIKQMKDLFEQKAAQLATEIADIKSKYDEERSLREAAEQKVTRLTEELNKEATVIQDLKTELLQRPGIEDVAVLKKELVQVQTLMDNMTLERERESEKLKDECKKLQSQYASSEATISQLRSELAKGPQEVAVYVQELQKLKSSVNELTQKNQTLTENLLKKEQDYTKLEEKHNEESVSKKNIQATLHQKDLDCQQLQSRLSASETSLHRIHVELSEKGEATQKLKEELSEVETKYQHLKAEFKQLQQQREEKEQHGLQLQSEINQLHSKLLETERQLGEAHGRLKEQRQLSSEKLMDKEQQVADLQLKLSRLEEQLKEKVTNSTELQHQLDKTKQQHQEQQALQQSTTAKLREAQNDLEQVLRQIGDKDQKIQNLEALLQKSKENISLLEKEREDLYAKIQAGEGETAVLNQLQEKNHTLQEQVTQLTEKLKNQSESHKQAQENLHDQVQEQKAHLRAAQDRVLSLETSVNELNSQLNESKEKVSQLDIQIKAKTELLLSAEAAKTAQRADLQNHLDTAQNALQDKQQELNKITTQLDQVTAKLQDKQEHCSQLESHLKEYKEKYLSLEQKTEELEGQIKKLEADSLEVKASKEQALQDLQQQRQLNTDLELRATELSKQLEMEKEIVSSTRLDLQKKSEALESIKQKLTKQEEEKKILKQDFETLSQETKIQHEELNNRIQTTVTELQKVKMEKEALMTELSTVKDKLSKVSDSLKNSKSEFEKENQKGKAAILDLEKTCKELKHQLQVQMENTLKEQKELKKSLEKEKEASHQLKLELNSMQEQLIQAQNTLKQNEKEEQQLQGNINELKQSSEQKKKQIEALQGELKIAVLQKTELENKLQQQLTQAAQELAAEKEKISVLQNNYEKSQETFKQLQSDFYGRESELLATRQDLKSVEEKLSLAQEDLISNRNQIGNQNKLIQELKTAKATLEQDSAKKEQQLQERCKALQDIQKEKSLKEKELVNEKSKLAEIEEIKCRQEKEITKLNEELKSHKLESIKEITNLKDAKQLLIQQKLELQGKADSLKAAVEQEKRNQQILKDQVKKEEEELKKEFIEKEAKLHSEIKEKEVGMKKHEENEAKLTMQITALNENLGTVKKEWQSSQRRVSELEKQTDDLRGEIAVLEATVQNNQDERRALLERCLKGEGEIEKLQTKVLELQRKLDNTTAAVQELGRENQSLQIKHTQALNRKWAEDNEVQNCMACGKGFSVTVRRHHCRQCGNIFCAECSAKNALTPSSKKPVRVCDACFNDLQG
UniProt P09211: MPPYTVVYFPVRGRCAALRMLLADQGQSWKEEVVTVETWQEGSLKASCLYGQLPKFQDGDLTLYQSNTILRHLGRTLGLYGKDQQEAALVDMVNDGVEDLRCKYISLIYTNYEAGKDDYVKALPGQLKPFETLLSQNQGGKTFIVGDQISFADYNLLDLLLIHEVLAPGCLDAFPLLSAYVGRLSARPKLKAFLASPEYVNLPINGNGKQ
UniProt P52630: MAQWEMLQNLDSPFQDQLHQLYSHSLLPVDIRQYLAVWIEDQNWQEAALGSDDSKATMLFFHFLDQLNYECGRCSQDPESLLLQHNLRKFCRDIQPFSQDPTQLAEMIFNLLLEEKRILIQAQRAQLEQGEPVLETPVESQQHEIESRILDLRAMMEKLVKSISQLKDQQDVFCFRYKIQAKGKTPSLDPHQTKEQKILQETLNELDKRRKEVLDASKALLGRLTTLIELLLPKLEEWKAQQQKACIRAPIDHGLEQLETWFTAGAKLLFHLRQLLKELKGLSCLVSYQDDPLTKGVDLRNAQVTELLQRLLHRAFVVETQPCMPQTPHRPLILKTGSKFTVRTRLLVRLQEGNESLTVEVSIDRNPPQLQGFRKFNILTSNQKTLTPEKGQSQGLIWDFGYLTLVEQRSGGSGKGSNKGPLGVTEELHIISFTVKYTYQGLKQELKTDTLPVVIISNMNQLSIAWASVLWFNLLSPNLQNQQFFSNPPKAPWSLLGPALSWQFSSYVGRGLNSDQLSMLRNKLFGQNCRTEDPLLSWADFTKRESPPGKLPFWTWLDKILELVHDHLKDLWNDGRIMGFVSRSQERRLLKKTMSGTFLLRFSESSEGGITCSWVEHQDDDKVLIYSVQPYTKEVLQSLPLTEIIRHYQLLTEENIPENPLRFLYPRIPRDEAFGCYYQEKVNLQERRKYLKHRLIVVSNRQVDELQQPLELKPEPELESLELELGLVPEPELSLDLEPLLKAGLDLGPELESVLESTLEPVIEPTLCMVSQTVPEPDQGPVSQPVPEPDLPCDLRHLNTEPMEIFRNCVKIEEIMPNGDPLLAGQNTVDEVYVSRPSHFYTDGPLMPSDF
UniProt Q99805, residues 29-663: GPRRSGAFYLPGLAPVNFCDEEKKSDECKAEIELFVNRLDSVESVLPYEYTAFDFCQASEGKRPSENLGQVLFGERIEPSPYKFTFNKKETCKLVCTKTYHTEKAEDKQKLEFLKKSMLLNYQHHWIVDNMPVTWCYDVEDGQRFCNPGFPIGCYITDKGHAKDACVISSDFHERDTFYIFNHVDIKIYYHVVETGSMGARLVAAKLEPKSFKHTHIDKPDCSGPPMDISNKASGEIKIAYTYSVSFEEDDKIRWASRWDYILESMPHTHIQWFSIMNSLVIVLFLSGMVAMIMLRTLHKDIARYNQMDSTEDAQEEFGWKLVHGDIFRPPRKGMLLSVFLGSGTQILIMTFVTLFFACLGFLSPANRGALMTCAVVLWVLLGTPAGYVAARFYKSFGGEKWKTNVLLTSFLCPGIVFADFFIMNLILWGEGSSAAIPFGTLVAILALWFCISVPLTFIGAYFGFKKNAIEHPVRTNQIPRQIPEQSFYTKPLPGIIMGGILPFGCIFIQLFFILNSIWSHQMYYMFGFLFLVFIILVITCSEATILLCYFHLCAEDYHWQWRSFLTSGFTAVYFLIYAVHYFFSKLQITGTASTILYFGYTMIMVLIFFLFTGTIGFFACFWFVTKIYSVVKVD
UniProt Q07157: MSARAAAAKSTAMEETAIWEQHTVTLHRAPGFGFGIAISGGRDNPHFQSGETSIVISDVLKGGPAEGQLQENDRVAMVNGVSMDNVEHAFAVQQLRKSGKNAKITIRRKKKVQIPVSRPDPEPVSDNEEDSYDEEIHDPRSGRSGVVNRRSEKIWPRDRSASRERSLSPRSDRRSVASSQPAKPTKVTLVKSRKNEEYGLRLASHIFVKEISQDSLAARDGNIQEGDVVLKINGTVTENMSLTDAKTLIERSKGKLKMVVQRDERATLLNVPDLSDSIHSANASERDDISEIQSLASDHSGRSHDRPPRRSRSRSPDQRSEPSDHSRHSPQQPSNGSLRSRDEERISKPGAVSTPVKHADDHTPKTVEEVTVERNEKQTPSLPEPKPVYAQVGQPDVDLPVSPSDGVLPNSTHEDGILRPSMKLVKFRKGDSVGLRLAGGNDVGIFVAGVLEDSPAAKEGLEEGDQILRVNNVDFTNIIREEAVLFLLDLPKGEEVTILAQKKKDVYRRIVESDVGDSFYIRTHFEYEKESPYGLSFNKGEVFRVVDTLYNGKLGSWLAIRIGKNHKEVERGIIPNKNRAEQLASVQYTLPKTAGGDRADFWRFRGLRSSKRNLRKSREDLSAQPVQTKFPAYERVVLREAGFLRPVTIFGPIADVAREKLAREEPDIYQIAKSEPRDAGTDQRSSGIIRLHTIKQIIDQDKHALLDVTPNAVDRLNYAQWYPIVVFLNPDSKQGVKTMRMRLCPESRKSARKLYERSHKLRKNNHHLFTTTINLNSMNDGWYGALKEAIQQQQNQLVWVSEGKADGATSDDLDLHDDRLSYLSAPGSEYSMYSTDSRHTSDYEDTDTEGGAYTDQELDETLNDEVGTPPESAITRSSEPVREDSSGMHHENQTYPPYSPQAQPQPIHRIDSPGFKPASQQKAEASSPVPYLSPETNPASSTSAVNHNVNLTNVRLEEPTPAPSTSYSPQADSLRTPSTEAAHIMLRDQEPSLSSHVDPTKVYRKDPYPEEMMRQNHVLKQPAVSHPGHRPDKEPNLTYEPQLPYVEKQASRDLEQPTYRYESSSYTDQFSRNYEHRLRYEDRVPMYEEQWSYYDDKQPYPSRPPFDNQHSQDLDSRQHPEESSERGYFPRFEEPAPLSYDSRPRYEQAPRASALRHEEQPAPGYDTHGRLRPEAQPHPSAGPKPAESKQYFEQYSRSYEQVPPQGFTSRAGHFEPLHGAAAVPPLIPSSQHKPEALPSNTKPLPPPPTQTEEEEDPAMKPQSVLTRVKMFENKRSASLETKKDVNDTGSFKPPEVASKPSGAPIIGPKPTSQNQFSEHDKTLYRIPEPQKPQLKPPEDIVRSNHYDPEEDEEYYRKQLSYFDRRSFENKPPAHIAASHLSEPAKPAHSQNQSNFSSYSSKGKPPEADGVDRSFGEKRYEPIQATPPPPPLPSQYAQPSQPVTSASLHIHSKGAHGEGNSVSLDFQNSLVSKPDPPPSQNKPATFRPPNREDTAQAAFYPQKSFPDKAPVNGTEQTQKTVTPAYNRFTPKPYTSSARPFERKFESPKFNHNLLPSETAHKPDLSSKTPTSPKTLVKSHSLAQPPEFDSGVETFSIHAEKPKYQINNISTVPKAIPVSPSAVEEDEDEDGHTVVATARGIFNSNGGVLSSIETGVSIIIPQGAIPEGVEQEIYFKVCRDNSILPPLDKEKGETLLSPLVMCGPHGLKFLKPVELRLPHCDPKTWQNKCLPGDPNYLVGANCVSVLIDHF

These are yes or no findings as the source states them, for the method shown. In cells and extracts the contact can be indirect. Here binding means that the protein was enriched with, or labelled near, the bait; the list need not be complete.

Assay [1] deals with EGFR–HaloTag (Flag–EGFR–HaloTag; full-length EGFR with an intracellular C-terminal HaloTag) (UniProt P00533). The assay is described as follows: proximity labelling; ICD ecto-tag MultiMap: live A549 cells expressing EGFR–HaloTag, serum-starved, EY–HTL anchored and washed out; with versus without EGFR–HaloTag, and EGF for 5 min or 60 min versus no EGF; three biotin photoprobes at 100 μM, 2 min blue light at 4 °C; streptavidin enrichment and LC–MS/MS.

The target of assay [2] is Flag–EGFR (full-length EGFR with an extracellular N-terminal Flag tag) (UniProt P00533). In words: proximity labelling; ECD ecto-tag MultiMap: live A549 cells expressing Flag–EGFR, serum-starved, anti-Flag–EY antibody bound at 4 °C; EGF for 5 min or 60 min versus no EGF; aryl-diazirine-biotin, aryl-azide-biotin or phenol-biotin at 100 μM, 2 min blue light at 4 °C; streptavidin enrichment and LC–MS/MS; enrichment normalised to EGFR.

Assay [3] addresses EGFR–HaloTag (Flag–EGFR–HaloTag; full-length EGFR with an intracellular C-terminal HaloTag) (UniProt P00533). In words: proximity labelling; ICD ecto-tag MultiMap with EY–HTL on EGFR–HaloTag in A549 cells; biotin immunoprecipitate (streptavidin beads) read by western blot; EGF for 5, 10, 30 and 60 min. Background: A western blot detects proteins with antibodies after separation by electrophoresis.

“Early endosomal protein EEA1 (from UniProt Q15075 1-1411)”: the binding entry in assay [1] is recorded as “binds”.
Turning to “GSTP1 (from UniProt P09211 1-210) (enzyme)”, the binding result in assay [1] and in assay [2] was “binds” each time.
Turning to “Integrin A2 (ITGA2) (from UniProt P17301 30-1181)”, the binding entry in assay [3] and in assay [2] was “binds” in each case.
For the molecule PDLIM7 (from UniProt Q9NR12 1-457), the binding result in assay [1] is listed as “binds”.
Turning to STAT2 (from UniProt P52630 1-851), the binding entry in assay [2] is on record as “binds”.
Turning to TM9S2 (from UniProt Q99805 29-663), in assay [1], the binding entry is recorded as “binds”.
For ZO1 (from UniProt Q07157 1-1748), the binding result in assay [1] and in assay [2] was “binds” throughout.
As to β-catenin (from UniProt P35222 1-781), the binding entry in assay [1] and in assay [2] was “binds” in each case.

B1: SCARB1 (protein, UniProt Q8WTV0 1-552)
chain: MGCSAKARWAAGALGVAGLLCAVLGAVMIVMVPSLIKQQVLKNVRIDPSSLSFNMWKEIPIPFYLSVYFFDVMNPSEILKGEKPQVRERGPYVYREFRHKSNITFNNNDTVSFLEYRTFQFQPSKSHGSESDYIVMPNILVLGAAVMMENKPMTLKLIMTLAFTTLGERAFMNRTVGEIMWGYKDPLVNLINKYFPGMFPFKDKFGLFAELNNSDSGLFTVFTGVQNISRIHLVDKWNGLSKVDFWHSDQCNMINGTSGQMWPPFMTPESSLEFYSPEACRSMKLMYKESGVFEGIPTYRFVAPKTLFANGSIYPPNEGFCPCLESGIQNVSTCRFSAPLFLSHPHFLNADPVLAEAVTGLHPNQEAHSLFLDIHPVTGIPMNCSVKLQLSLYMKSVAGIGQTGKIEPVVLPLLWFAESGAMEGETLHTFYTQLVLMPKVMHYAQYVLLALGCVLLLVPVICQIRSQVGAGQRAARADSHSLACWGKGASDRTLWPTAAWSPPPAAVLRLCRSGSGHCWGLRSTLASFACRVATTLPVLEGLGPSLGGGTGS
Consider B1, for which the binding result in assay [2] is “binds”.

B2: BCAM (protein, UniProt P50895 32-628)
chain: EVRLSVPPLVEVMRGKSVILDCTPTGTHDHYMLEWFLTDRSGARPRLASAEMQGSELQVTMHDTRGRSPPYQLDSQGRLVLAEAQVGDERDYVCVVRAGAAGTAEATARLNVFAKPEATEVSPNKGTLSVMEDSAQEIATCNSRNGNPAPKITWYRNGQRLEVPVEMNPEGYMTSRTVREASGLLSLTSTLYLRLRKDDRDASFHCAAHYSLPEGRHGRLDSPTFHLTLHYPTEHVQFWVGSPSTPAGWVREGDTVQLLCRGDGSPSPEYTLFRLQDEQEEVLNVNLEGNLTLEGVTRGQSGTYGCRVEDYDAADDVQLSKTLELRVAYLDPLELSEGKVLSLPLNSSAVVNCSVHGLPTPALRWTKDSTPLGDGPMLSLSSITFDSNGTYVCEASLPTVPVLSRTQNFTLLVQGSPELKTAEIEPKADGSWREGDEVTLICSARGHPDPKLSWSQLGGSPAEPIPGRQGWVSSSLTLKVTSALSRDGISCEASNPHGNKRHVFHFGTVSPQTSQAGVAVMAVAVSVGLLLLVVAVFYCVRRKGGPCCRQRREKGAPPPGEPGLSHSGSEQPEQTGLLMGGASGGARGGSGGFGDEC
For B2, the binding entry in assay [2] was “binds”.

B3: Translocon-associated protein SSRA (protein, UniProt P43307 19-286)
chain: VLFRGGPRGLLAVAQDLTEDEETVEDSIIEDEDDEAEVEEDEPTDLVEDKEEEDVSGEPEASPSADTTILFVKGEDFPANNIVKFLVGFTNKGTEDFIVESLDASFRYPQDYQFYIQNFTALPLNTVVPPQRQATFEYSFIPAEPMGGRPFGLVINLNYKDLNGNVFQDAVFNQTVTVIEREDGLDGETIFMYMFLAGLGLLVIVGLHQLLESRKRKRPIQKVEMGTSSQNDVDMSWIPQETLNQINKASPRRLPRKRAQKRSVGSDE
Take B3: the binding entry in assay [1] is on record as “binds”.

B4: CD166 (protein, UniProt Q13740 28-583)
chain: WYTVNSAYGDTIIIPCRLDVPQNLMFGKWKYEKPDGSPVFIAFRSSTKKSVQYDDVPEYKDRLNLSENYTLSISNARISDEKRFVCMLVTEDNVFEAPTIVKVFKQPSKPEIVSKALFLETEQLKKLGDCISEDSYPDGNITWYRNGKVLHPLEGAVVIIFKKEMDPVTQLYTMTSTLEYKTTKADIQMPFTCSVTYYGPSGQKTIHSEQAVFDIYYPTEQVTIQVLPPKNAIKEGDNITLKCLGNGNPPPEEFLFYLPGQPEGIRSSNTYTLTDVRRNATGDYKCSLIDKKSMIASTAITVHYLDLSLNPSGEVTRQIGDALPVSCTISASRNATVVWMKDNIRLRSSPSFSSLHYQDAGNYVCETALQEVEGLKKRESLTLIVEGKPQIKMTKKTDPSGLSKTIICHVEGFPKPAIQWTITGSGSVINQTEESPYINGRYYSKIIISPEENVTLTCTAENQLERTVNSLNVSAISIPEHDEADEISDENREKVNDQAKLIVGIVVGLLLAALVAGVVYWLYMKKSKTASKHVNKDLGNMEENKKLEENNHKTEA
As to B4, the binding entry in assay [2] is reported as “binds”.

B5: MX1 (protein, UniProt P20591 1-662)
chain: MVVSEVDIAKADPAAASHPLLLNGDATVAQKNPGSVAENNLCSQYEEKVRPCIDLIDSLRALGVEQDLALPAIAVIGDQSSGKSSVLEALSGVALPRGSGIVTRCPLVLKLKKLVNEDKWRGKVSYQDYEIEISDASEVEKEINKAQNAIAGEGMGISHELITLEISSRDVPDLTLIDLPGITRVAVGNQPADIGYKIKTLIKKYIQRQETISLVVVPSNVDIATTEALSMAQEVDPEGDRTIGILTKPDLVDKGTEDKVVDVVRNLVFHLKKGYMIVKCRGQQEIQDQLSLSEALQREKIFFENHPYFRDLLEEGKATVPCLAEKLTSELITHICKSLPLLENQIKETHQRITEELQKYGVDIPEDENEKMFFLIDKVNAFNQDITALMQGEETVGEEDIRLFTRLRHEFHKWSTIIENNFQEGHKILSRKIQKFENQYRGRELPGFVNYRTFETIVKQQIKALEEPAVDMLHTVTDMVRLAFTDVSIKNFEEFFNLHRTAKSKIEDIRAEQEREGEKLIRLHFQMEQIVYCQDQVYRGALQKVREKELEEEKKKKSWDFGAFQSSSATDSSMEEIFQHLMAYHQEASKRISSHIPLIIQFFMLQTYGQQLQKAMLQLLQDKDTYSWLLKERSDTSDKRKFLKERLARLTQARRRLAQFPG
For B5, the binding result in assay [2] is “binds”.

B6: LASP1 (protein, UniProt Q14847 1-261)
chain: MNPNCARCGKIVYPTEKVNCLDKFWHKACFHCETCKMTLNMKNYKGYEKKPYCNAHYPKQSFTMVADTPENLRLKQQSELQSQVRYKEEFEKNKGKGFSVVADTPELQRIKKTQDQISNIKYHEEFEKSRMGPSGGEGMEPERRDSQDGSSYRRPLEQQQPHHIPTSAPVYQQPQQQPVAQSYGGYKEPAAPVSIQRSAPGGGGKRYRAVYDYSAADEDEVSFQDGDTIVNVQQIDDGWMYGTVERTGDTGMLPANYVEAI
For the molecule B6, the binding result in assay [1] is given as “binds”.

B7: STX7 (protein, UniProt O15400 1-261)
chain: MSYTPGVGGDPAQLAQRISSNIQKITQCSVEIQRTLNQLGTPQDSPELRQQLQQKQQYTNQLAKETDKYIKEFGSLPTTPSEQRQRKIQKDRLVAEFTTSLTNFQKVQRQAAEREKEFVARVRASSRVSGSFPEDSSKERNLVSWESQTQPQVQVQDEEITEDDLRLIHERESSIRQLEADIMDINEIFKDLGMMIHEQGDVIDSIEANVENAEVHVQQANQQLSRAADYQRKSRKTLCIIILILVIGVAIISLIIWGLNH
For B7, the binding result in assay [2] is reported as “binds”.

B8: AP1M1 (protein, UniProt Q9BXS5 1-423)
chain: MSASAVYVLDLKGKVLICRNYRGDVDMSEVEHFMPILMEKEEEGMLSPILAHGGVRFMWIKHNNLYLVATSKKNACVSLVFSFLYKVVQVFSEYFKELEEESIRDNFVIIYELLDELMDFGYPQTTDSKILQEYITQEGHKLETGAPRPPATVTNAVSWRSEGIKYRKNEVFLDVIESVNLLVSANGNVLRSEIVGSIKMRVFLSGMPELRLGLNDKVLFDNTGRGKSKSVELEDVKFHQCVRLSRFENDRTISFIPPDGEFELMSYRLNTHVKPLIWIESVIEKHSHSRIEYMIKAKSQFKRRSTANNVEIHIPVPNDADSPKFKTTVGSVKWVPENSEIVWSIKSFPGGKEYLMRAHFGLPSVEAEDKEGKPPISVKFEIPYFTTSGIQVRYLKIIEKSGYQALPWVRYITQNGDYQLRTQ
Regarding B8, the binding entry in assay [2] is “binds”.

B9: CLPTM1 (protein, UniProt O96005 1-669)
chain: MAAAQEADGARSAVVAAGGGSSGQVTSNGSIGRDPPAETQPQNPPAQPAPNAWQVIKGVLFRIFIIWAISSWFRRGPAPQDQAGPGGAPRVASRNLFPKDTLMNLHVYISEHEHFTDFNATSALFWEQHDLVYGDWTSGENSDGCYEHFAELDIPQSVQQNGSIYIHVYFTKSGFHPDPRQKALYRRLATVHMSRMINKYKRRRFQKTKNLLTGETEADPEMIKRAEDYGPVEVISHWHPNITINIVDDHTPWVKGSVPPPLDQYVKFDAVSGDYYPIIYFNDYWNLQKDYYPINESLASLPLRVSFCPLSLWRWQLYAAQSTKSPWNFLGDELYEQSDEEQDSVKVALLETNPYLLALTIIVSIVHSVFEFLAFKNDIQFWNSRQSLEGLSVRSVFFGVFQSFVVLLYILDNETNFVVQVSVFIGVLIDLWKITKVMDVRLDREHRVAGIFPRLSFKDKSTYIESSTKVYDDMAFRYLSWILFPLLGCYAVYSLLYLEHKGWYSWVLSMLYGFLLTFGFITMTPQLFINYKLKSVAHLPWRMLTYKALNTFIDDLFAFVIKMPVMYRIGCLRDDVVFFIYLYQRWIYRVDPTRVNEFGMSGEDPTAAAPVAEVPTAAGALTPTPAPTTTTATREEASTSLPTKPTQGASSASEPQEAPPKPAEDKKKD
In the case of B9, in assay [2], the binding result is “binds”.

B10: TMED10 (protein, UniProt P49755 32-219)
chain: ISFHLPINSRKCLREEIHKDLLVTGAYEISDQSGGAGGLRSHLKITDSAGHILYSKEDATKGKFAFTTEDYDMFEVCFESKGTGRIPDQLVILDMKHGVEAKNYEEIAKVEKLKPLEVELRRLEDLSESIVNDFAYMKKREEEMRDTNESTNTRVLYFSIFSMFCLIGLATWQVFYLRRFFKAKKLIE
In the case of B10, in assay [2], the binding entry is listed as “binds”.
